Measurements published in the supplement of paper PMC10849652.
Some of the results follow.

Protein sequences, listed by entry. Tags and fused reporters are not part of them. Lines headed by an entry give the natural chain unless they say otherwise; changes in a name come on top.
UniProt P78345: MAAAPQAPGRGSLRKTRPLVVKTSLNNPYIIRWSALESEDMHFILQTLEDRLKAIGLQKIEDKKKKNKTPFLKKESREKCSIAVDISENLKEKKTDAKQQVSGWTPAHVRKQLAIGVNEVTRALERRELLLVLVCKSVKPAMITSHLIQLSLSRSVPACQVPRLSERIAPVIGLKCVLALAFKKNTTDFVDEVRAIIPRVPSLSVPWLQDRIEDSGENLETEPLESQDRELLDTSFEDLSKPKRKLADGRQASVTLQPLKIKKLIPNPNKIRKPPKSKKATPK
UniProt Q15349, whole entry, looked up: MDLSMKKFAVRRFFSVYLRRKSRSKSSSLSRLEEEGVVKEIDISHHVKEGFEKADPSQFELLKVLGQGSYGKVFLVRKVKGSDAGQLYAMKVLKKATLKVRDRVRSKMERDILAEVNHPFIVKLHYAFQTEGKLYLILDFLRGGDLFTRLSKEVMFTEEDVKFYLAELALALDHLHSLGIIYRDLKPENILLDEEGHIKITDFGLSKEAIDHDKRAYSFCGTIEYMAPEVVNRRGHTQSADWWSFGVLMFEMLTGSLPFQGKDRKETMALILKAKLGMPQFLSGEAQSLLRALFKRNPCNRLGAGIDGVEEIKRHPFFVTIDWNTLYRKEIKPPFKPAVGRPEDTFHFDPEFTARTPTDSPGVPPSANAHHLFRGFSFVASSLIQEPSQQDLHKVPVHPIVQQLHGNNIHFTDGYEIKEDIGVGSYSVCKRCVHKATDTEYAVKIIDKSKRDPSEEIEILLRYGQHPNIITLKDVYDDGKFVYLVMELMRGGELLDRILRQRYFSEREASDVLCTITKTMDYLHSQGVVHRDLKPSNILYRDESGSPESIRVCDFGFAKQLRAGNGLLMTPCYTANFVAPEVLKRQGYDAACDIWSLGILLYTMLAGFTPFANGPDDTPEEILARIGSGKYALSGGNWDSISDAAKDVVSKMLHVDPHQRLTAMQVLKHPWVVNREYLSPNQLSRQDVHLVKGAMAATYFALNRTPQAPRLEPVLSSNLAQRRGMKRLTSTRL
UniProt Q5VZM2, whole entry, looked up: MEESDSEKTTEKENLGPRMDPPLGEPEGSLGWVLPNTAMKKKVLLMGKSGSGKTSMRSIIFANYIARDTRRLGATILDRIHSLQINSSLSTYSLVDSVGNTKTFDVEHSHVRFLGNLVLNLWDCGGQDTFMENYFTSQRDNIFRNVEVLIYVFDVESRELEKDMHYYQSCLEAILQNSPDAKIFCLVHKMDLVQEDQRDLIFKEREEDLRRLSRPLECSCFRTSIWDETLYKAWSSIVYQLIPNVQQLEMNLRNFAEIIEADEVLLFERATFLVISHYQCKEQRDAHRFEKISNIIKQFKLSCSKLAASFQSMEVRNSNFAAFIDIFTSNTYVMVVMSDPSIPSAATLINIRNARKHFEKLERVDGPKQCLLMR
UniProt Q9NQG5: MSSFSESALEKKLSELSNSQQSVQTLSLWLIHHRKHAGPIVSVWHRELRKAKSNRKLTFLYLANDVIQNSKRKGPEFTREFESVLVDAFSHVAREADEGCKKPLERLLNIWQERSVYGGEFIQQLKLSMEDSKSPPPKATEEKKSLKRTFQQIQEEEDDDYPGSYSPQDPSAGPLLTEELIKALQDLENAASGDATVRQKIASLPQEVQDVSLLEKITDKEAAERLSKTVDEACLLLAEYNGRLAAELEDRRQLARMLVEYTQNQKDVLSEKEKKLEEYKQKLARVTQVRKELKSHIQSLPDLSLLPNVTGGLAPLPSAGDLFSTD

How the values were obtained:
Assay in all cases: log2 fold change, soluble protein after heating vs DMSO (PISA); higher = thermal stabilisation; K562 cells, 10 uM, 30 min; active = over 0.2 and 3.5 SD of the protein, either way, in both replicates (recomputed)
[1] = compound: NC(=O)Nc1cc(-c2cccc(F)c2)sc1C(=O)N[C@H]1CCCNC1
Outline: (§1)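 Aliquots of K562 cells (2×10^6 cells/mL) treated with 10 μM compound for 30 min were heated for 3 min over 48°C-58°C. After pooling and extraction in PBS with 0.5% NP-40 at 4°C, soluble protein from a 21,000xg, 90 min spin was quantified by TMTpro 16plex LC-MS/MS with channel sums equalised. Thermal stability is expressed against control samples, from duplicates, as a log2 fold change.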

[2] = compound: NC(=O)c1cnc(N[C@@H]2CCCC[C@@H]2N)nc1Nc1cccc(-n2nccn2)c1
Outline: as §1

[3] = compound: NC1(c2ccc(-c3nc4ccn5c(=O)[nH]nc5c4cc3-c3ccccc3)cc2)CCC1
Outline: as §1

[4] = compound: NCC(=O)Nc1ccc(-n2nc(C(F)(F)F)cc2-c2ccc3c(ccc4ccccc43)c2)cc1
Outline: as §1

[5] = compound: Nc1ccccc1NC(=O)c1ccc(CNC(=O)OCc2cccnc2)cc1 [entinostat]
Outline: as §1

[6] = compound: O=C(CCCCCCC(=O)Nc1ccccc1)NO [vorinostat]
Outline: as §1

[7] = compound: O=C(CCCCCCNC(=O)c1cnc(N(c2ccccc2)c2ccccc2Cl)nc1)NO [citarinostat]
Outline: as §1

[8] = compound: O=C(O)c1ccc2c(c1)nc(Nc1cccc(Cl)c1)c1ccncc12 [silmitasertib]
Outline: as §1

[9] = compound: O=C1NC(=O)C(c2cnc3ccccn23)=C1c1cn2c3c(cc(F)cc13)CN(C(=O)N1CCCCC1)CC2
Outline: as §1

[10] = compound: c1cc(OCCN2CCCCC2)cc(-c2n[nH]c3ccc(-c4nnc[nH]4)cc23)c1
Outline: as §1

Target	log2 fold change [1]	log2 fold change [2]	log2 fold change [3]	log2 fold change [4]	log2 fold change [5]	log2 fold change [6]	log2 fold change [7]	log2 fold change [8]	log2 fold change [9]	log2 fold change [10]
RPP38 (UniProt P78345)	inactive: -0.04	inactive: -0.025	inactive: 0.047	inactive: -0.018	inactive: 0.016	inactive: 0.034	inactive: 0.009	inactive: 0.016	inactive: -0.022	inactive: -0.057
RPS23 (UniProt P62266)	inactive: 0.154	inactive: 0.145	inactive: 0.407	inactive: 0.169	inactive: -0.08	inactive: 0	inactive: -0.086	inactive: 0.117	inactive: 0.181	inactive: -0.237
RPS6KA2 isoform 2 (UniProt Q15349)	inactive: -0.129	inactive: -0.256	inactive: -0.269	inactive: -0.035	inactive: 0.067	inactive: 0.122	inactive: 0.106	inactive: -0.044	inactive: -0.056	inactive: -0.295
RPL38 (UniProt P63173)	inactive: -0.005	inactive: 0.022	inactive: 0.09	inactive: 0.024	inactive: -0.022	inactive: 0.002	inactive: -0.003	inactive: -0.008	inactive: 0	inactive: -0.094
RRAGB (UniProt Q5VZM2)	inactive: 0.112	inactive: -0.017	active: -0.317	inactive: 0.023	inactive: 0.012	inactive: 0.018	inactive: -0.006	inactive: 0.031	inactive: 0.008	inactive: 0.05
RPL17 isoform 3 (UniProt P18621)	inactive: 0.209	inactive: 0.248	inactive: 0.39	inactive: 0.268	inactive: -0.072	inactive: -0.048	inactive: -0.206	inactive: 0.084	inactive: 0.213	inactive: -0.251
RPL10A (UniProt P62906)	inactive: 0.234	inactive: 0.165	inactive: 0.449	inactive: 0.331	inactive: -0.1	inactive: -0.028	inactive: -0.212	inactive: 0.206	inactive: 0.294	inactive: -0.322
RPS14 (UniProt P62263)	inactive: 0.056	inactive: 0.142	inactive: 0.149	inactive: 0.08	inactive: -0.033	inactive: -0.106	inactive: -0.089	inactive: -0.041	inactive: 0.209	inactive: -0.069
RPL10 (UniProt P27635)	inactive: 0.195	inactive: 0.133	inactive: 0.371	inactive: 0.21	inactive: -0.053	inactive: 0.013	inactive: -0.158	inactive: 0.117	inactive: 0.28	inactive: -0.281
RPSA (UniProt P08865)	inactive: -0.018	inactive: 0.035	inactive: 0.079	inactive: -0.009	inactive: 0.025	inactive: -0.02	inactive: -0.02	inactive: -0.034	inactive: 0.026	inactive: -0.051
RPL11 (UniProt P62913)	inactive: 0.136	inactive: 0.121	inactive: 0.407	inactive: 0.225	inactive: -0.071	inactive: 0	inactive: -0.161	inactive: 0.17	inactive: 0.164	inactive: -0.396
RPRD1B (UniProt Q9NQG5)	inactive: -0.058	inactive: -0.03	inactive: -0.087	inactive: -0.081	inactive: 0.051	inactive: 0.049	inactive: 0.029	inactive: 0.031	active: -0.346	inactive: -0.049
RPLP0 (UniProt P05388)	inactive: 0.123	inactive: 0.127	inactive: 0.441	inactive: 0.293	inactive: -0.159	inactive: -0.021	inactive: -0.185	inactive: 0.196	inactive: 0.308	inactive: -0.31

Single records, from the list above. Values in the order: log2 fold change [1]	log2 fold change [2]	log2 fold change [3]	log2 fold change [4]	log2 fold change [5]	log2 fold change [6]	log2 fold change [7]	log2 fold change [8]	log2 fold change [9]	log2 fold change [10]
RPS23 (UniProt P62266) is listed as inactive: 0.154	inactive: 0.145	inactive: 0.407	inactive: 0.169	inactive: -0.08	inactive: 0	inactive: -0.086	inactive: 0.117	inactive: 0.181	inactive: -0.237
RPL11 (UniProt P62913) is listed as inactive: 0.136	inactive: 0.121	inactive: 0.407	inactive: 0.225	inactive: -0.071	inactive: 0	inactive: -0.161	inactive: 0.17	inactive: 0.164	inactive: -0.396
